This is one part of the list. These are further read-outs of the screen, such as a control signal, another cell line or another target. No call is given for them. Most of these compounds were active or inconclusive in the main read-out, so they are no random draw. The note in brackets gives the kind of curve behind each potency; many fits are weak.
Assay: qHTS Assay for Lipid Storage Modulators in Drosophila S3 Cells;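 as to cell number change: cells counted by Cell Tracker Red CMTPX staining in the red channel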
Conditions: BODIPY lipid droplet fluorescence, 18-24 h; for cell number change: measured here: cell count max response, cells fed with added oleic acid
In short: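 Drosophila S3 cells loaded with oleic acid (400 uM, as added) and compounds at several concentrations; lipid droplets imaged by 488-nm laser-scanning cytometry, 500–530 nm intensity and object ratio to cell channel. Percent activity normalized to 20 uM Triacsin C.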

[1] = measured here: lipid fluorescence (Fed channel) AC50, cells fed with added oleic acid
[2] = measured here: cell number channel AC50, cells fed with added oleic acid

O=C(CC(Nc1ccccc1)c1ccccc1)C1CC1 (stereo unspecified)
cell number change: 16.1% | AC50 [1]: 3.66 µM [rising, full curve, poor fit]

CC1(C)CCc2c([nH]c3ccccc3c2=O)O1
cell number change: -69.1% | AC50 [2]: 0.103 µM [falling, full curve, poor fit] | AC50 [1]: 0.184 µM [falling, full curve]

Cc1ccc(-c2csc(NC(=O)CN3C(=O)CCC3=O)n2)cc1
cell number change: -20.2% | AC50 [1]: 1.64 µM [falling, single point]

COc1ccc2c(c1OC)C(=O)N1c3ccccc3COC21 (stereo unspecified)
cell number change: 1.35% | AC50 [1]: 2.59 µM [rising, partial curve]

CCCNc1nc2c(c(=O)n(C)c(=O)n2C)n1CCc1ccccc1
cell number change: -23.5% | AC50 [1]: 29.1 µM [falling, single point]

CCN(C(=O)COC(=O)C1CCN(S(=O)(=O)c2ccc3c(c2)OCCO3)CC1)C1CCS(=O)(=O)C1 (stereo unspecified)
AC50 [1]: 0.13 µM [rising, full curve, poor fit]

CCOC(=O)C1=C(C)NC(=O)C(C(N)=O)C1c1ccccc1 (stereo unspecified)
cell number change: -0.626% | AC50 [1]: 1.46 µM [falling, full curve, poor fit]

Cc1ccc(Oc2ncnc3sccc23)cc1
cell number change: -8.78% | AC50 [1]: 0.103 µM [falling, full curve, poor fit]

CCOc1ccc(Br)cc1S(=O)(=O)Nc1ccc(N2CCOCC2)cc1
AC50 [2]: 0.82 µM [rising, partial curve] | AC50 [1]: 1.3 µM [rising, full curve]

COc1ccc(CNC(=O)CSc2nc3ccc(N)cc3s2)cc1
cell number change: -7.71% | AC50 [2]: 0.731 µM [rising, partial curve, poor fit]

CC(=O)NC(Cc1ccccc1F)C(=O)NC1CCN(c2ncccc2[N+](=O)[O-])CC1 (stereo unspecified)
cell number change: 15.8% | AC50 [1]: 14.6 µM [rising, single point]

COC(CNC(=O)c1ccc2c(c1)nc(C)n2-c1cc(C)cc(C)c1)OC
cell number change: 1.3% | AC50 [1]: 0.58 µM [falling, full curve]

O=C(/C=C/c1ccc(Cl)cc1)N1CCN(c2ccc(Cl)cc2[N+](=O)[O-])CC1
cell number change: 62.7% | AC50 [2]: 29.1 µM [rising, single point]

Cc1nc2ccccc2c(=O)n1/N=C/c1cn(-c2ccccc2)nc1-c1cccs1
cell number change: 13.6% | AC50 [1]: 29.1 µM [rising, partial curve]

O=C(c1ccc(NS(=O)(=O)c2ccccc2)cc1)N1CCCCCC1
cell number change: 12.4% | AC50 [1]: 29.1 µM [falling, single point]

Cn1c(CCN2CCCCC2)nc2cc(NC(=O)NC3CCCCC3)ccc21
cell number change: 0.952%

O=C(COC(=O)/C=C/c1cccc(Cl)c1)NCCc1ccccc1
cell number change: 16.7% | AC50 [1]: 23.1 µM [rising, single point]

Cc1cc2c(cc1C)N(CC(=O)N1CCCC1)C(=O)CC(c1ccccc1)=N2
cell number change: 83.9% | AC50 [2]: 7.31 µM [rising, partial curve, poor fit]

COc1cc(NC(=O)CSc2nc(C)cc(C)n2)cc(OC)c1OC
cell number change: 5.85% | AC50 [2]: 0.103 µM [falling, full curve, poor fit] | AC50 [1]: 0.103 µM [falling, full curve, poor fit]

Cc1cc(OC(C)C(=O)NCC2CCC(C(=O)O)CC2)c2c(C)c(Cc3ccccc3)c(=O)oc2c1 (stereo unspecified)
cell number change: -13.3%

CCCCC(=O)NC(c1cccc([N+](=O)[O-])c1)c1c(OC(C)=O)ccc2ccccc12 (stereo unspecified)
cell number change: -25.3% | AC50 [1]: 29.1 µM [falling, single point]

Cc1nc(Nc2c(Cl)cccc2Cl)sc1C(=O)Nc1ccccc1
cell number change: -19.5% | AC50 [1]: 23.1 µM [falling, single point]

COc1cccc(OCCn2cc(/C=N/NC(=O)c3ccncc3)c3ccccc32)c1
cell number change: -3.05% | AC50 [1]: 3.66 µM [rising, single point]

COc1c(F)c(F)c(C(=O)Nc2ccc(N3CCN(Cc4ccccc4)CC3)cc2)c(F)c1F
cell number change: 20.3%

CCc1ccccc1NC(=O)CN(C)C(=O)Cn1ncc(Cl)c(Cl)c1=O
cell number change: -19.9% | AC50 [1]: 9.2 µM [falling, partial curve]

COc1ccccc1C(C)NS(=O)(=O)c1ccc(Cl)nc1 (stereo unspecified)
cell number change: 0.514% | AC50 [1]: 4.61 µM [rising, single point]

CCOC(=O)c1cc(C#N)c(SCC(=O)OC)[nH]c1=O
cell number change: -7.49% | AC50 [1]: 0.366 µM [falling, partial curve, poor fit]

CCc1nc(SCC(=O)Nc2ccccc2Cl)n[nH]1
AC50 [1]: 16.4 µM [falling, partial curve]

CCn1cnc2cc(NCc3nc4ccccc4n3Cc3ccccc3)ccc21
cell number change: -19.6% | AC50 [1]: 25.9 µM [falling, single point]

CCOC(=O)N1CCN(CC(O)COc2cc(C)cc(C)c2)CC1 (stereo unspecified)
cell number change: 34.8% | AC50 [2]: 16.4 µM [rising, partial curve]

O=C(Nc1ccc(Cl)cc1)C1CCCN1C(=O)NCc1ccccc1 (stereo unspecified)
AC50 [1]: 29.1 µM [rising, single point]

Cc1ccccc1OCC(=O)NNC(=S)NC(=O)c1ccco1
cell number change: -10.2%

CCCCNC(=O)c1onc(CSc2ccc(Cl)cc2)c1C(=O)O
cell number change: 5.03% | AC50 [1]: 4.61 µM [falling, single point]

CCOP(=O)(Cc1ccc(C(C)(C)CC(C)=O)o1)OCC
cell number change: 17.5% | AC50 [1]: 29.1 µM [rising, single point]

O=C(Cn1c(SCc2ccccc2)nc2ccccc21)N1CCOCC1
cell number change: -22.1% | AC50 [1]: 0.206 µM [falling, full curve, poor fit]

Cc1cc(C)c(S(=O)(=O)Nc2ccnc(-c3cccnc3)n2)c(C)c1
cell number change: 41.3% | AC50 [2]: 5.8 µM [rising, full curve, poor fit] | AC50 [1]: 0.517 µM [rising, full curve]

CCc1ccc(NC(=O)c2noc3c2CCC3)cc1
cell number change: 45% | AC50 [2]: 20.6 µM [rising, single point]

CN1CCCC(CC2Oc3ccccc3Sc3ccccc32)C1 (stereo unspecified)
cell number change: -14% | AC50 [2]: 0.326 µM [rising, partial curve, poor fit] | AC50 [1]: 18.4 µM [falling, single point]

COc1ccccc1CC(=O)N1CCC(CCC(=O)NC2CC2)CC1
cell number change: 16.7% | AC50 [2]: 6.51 µM [rising, single point]

CC(C)(C)NC(=O)COC(=O)c1snc(C(=O)NC2CCCCC2)c1N
cell number change: -197% | AC50 [2]: 29.1 µM [falling, single point] | AC50 [1]: 6.51 µM [rising, single point]

CCOC(=O)c1c(/N=C/N(C)C)sc(C(=O)OC)c1C
AC50 [1]: 29.1 µM [falling, single point]

Nc1nonc1NC(=O)CSc1nc2ccccc2s1
cell number change: -68.3% | AC50 [2]: 2.31 µM [falling, partial curve, poor fit] | AC50 [1]: 1.16 µM [falling, full curve]

Cc1cccc(OCC(=O)NCC(=O)N/N=C/c2ccc(O)cc2O)c1
cell number change: -29.8% | AC50 [1]: 16.4 µM [falling, partial curve]

Cc1csc2ncnc(NCCc3ccccn3)c12
cell number change: -47% | AC50 [2]: 32.6 µM [falling, partial curve]

COc1ccc(N2CC(C(=O)Nc3ccc([N+](=O)[O-])cc3Br)CC2=O)cc1 (stereo unspecified)
cell number change: 7.5%

COc1c(O)cccc1-c1nnn(CCC(=O)OCC(=O)c2ccccc2)n1
cell number change: 0.448% | AC50 [1]: 23.1 µM [falling, single point]

CCCS(=O)(=O)c1nc(S(=O)(=O)c2ccc(C)cc2)c(N2CCN(CC)CC2)s1
AC50 [2]: 0.651 µM [rising, single point]

COc1ccc(-c2[nH]ncc2CN2CCC(OCc3ccccn3)CC2)c(F)c1
cell number change: 2.32% | AC50 [1]: 3.26 µM [rising, full curve]

COc1ccc(C2OC(=O)C(C)(C)C(=O)C2(C)C)cc1OC (stereo unspecified)
cell number change: -8.75% | AC50 [2]: 0.058 µM [falling, full curve, poor fit]

CC(C)(O)C#Cc1ccc(CN2CCCC(CO)(Cc3cccc(Cl)c3)C2)cc1 (stereo unspecified)
cell number change: -19.7% | AC50 [1]: 29.1 µM [falling, single point]

CN(CC1CCCN(CCc2ccc(Cl)cc2)C1)C(=O)CC(F)(F)F (stereo unspecified)
cell number change: 23.3% | AC50 [1]: 9.2 µM [rising, partial curve, poor fit]

Cc1ccc(N2C(=O)C3CCCN3C2=S)cc1 (stereo unspecified)
cell number change: -4.26% | AC50 [2]: 0.82 µM [rising, full curve]

O=C(CCCc1nc(-c2ccc(Cl)cc2)no1)NC1CCCCC1
cell number change: 6.09%

O=C(N/N=C/c1ccccn1)c1ccc([N+](=O)[O-])cc1Cl
cell number change: 6.93% | AC50 [1]: 0.58 µM [rising, single point]

Cc1ccc(CNc2cnccn2)s1
cell number change: 23.4%

CCCCCCC1/C(=N\NC(=O)c2ccccc2)CCC1C(=O)OC (stereo unspecified)
cell number change: 14.9% | AC50 [1]: 0.731 µM [rising, full curve, poor fit]

Nc1ccccc1-c1nc2ccccc2[nH]c1=O
AC50 [1]: 6.51 µM [rising, single point]

N#C/C(=C\c1ccc(OCc2ccccc2)cc1)C(=O)Nc1ccc(C(=O)O)cc1
AC50 [1]: 29.1 µM [falling, single point]

O=C(Nc1ncc(Br)s1)C(Cc1ccccc1)n1cccc1 (stereo unspecified)
cell number change: -56.4% | AC50 [2]: 18.4 µM [falling, single point] | AC50 [1]: 14.6 µM [falling, partial curve]

COc1cc(NC(=O)CN2C(=O)NC(c3ccccc3)(c3ccccc3)C2=O)c(C)cc1[N+](=O)[O-]
cell number change: 27.1% | AC50 [1]: 7.31 µM [rising, partial curve]

Cc1ccccc1C(=O)NCC(=O)Nc1ccccc1C(F)(F)F
cell number change: 31.7% | AC50 [2]: 6.51 µM [rising, single point]

Cc1cc(C)nc(-n2nc(C)cc2NC(=O)c2cccc(S(=O)(=O)N(C)C)c2)n1
cell number change: 5.83%

— PubChem BioAssay AID2685 (National Center for Advancing Translational Sciences (NCATS), 2010)
